Paper PMC10641524
Results are given in words; binding and its absence hold for the method and conditions named. Binding seen in cells or lysates may run through a third protein. A yes stands for co-enrichment or nearness to the bait. Other partners may have been found. For some of these results: No binding means not detected with the bait.

Protein sequences, listed by entry. Tags and fused reporters are not part of them.
UniProt Q9NP72: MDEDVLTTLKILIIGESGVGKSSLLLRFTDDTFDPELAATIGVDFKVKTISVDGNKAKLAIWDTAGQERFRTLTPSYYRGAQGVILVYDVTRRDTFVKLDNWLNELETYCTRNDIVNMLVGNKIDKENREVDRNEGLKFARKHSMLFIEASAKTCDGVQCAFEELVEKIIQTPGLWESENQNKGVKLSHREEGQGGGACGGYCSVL

B1: STX18 (protein, UniProt Q9P2W9 1-335)
chain: MAVDITLLFRASVKTVKTRNKALGVAVGGGVDGSRDELFRRSPRPKGDFSSRAREVISHIGKLRDFLLEHRKDYINAYSHTMSEYGRMTDTERDQIDQDAQIFMRTCSEAIQQLRTEAHKEIHSQQVKEHRTAVLDFIEDYLKRVCKLYSEQRAIRVKRVVDKKRLSKLEPEPNTKTRESTSSEKVSQSPSKDSEENPATEERPEKILAETQPELGTWGDGKGEDELSPEEIQMFEQENQRLIGEMNSLFDEVRQIEGRVVEISRLQEIFTEKVLQQEAEIDSIHQLVVGATENIKEGNEDIREAIKNNAGFRVWILFFLVMCSFSLLFLDWYDS
B2: RAB3GAP2 (protein, UniProt Q9H2M9 1-1393)
chain: MACSIVQFCYFQDLQAARDFLFPHLREEILSGALRRDPSKSTDWEDDGWGAWEENEPQEPEEEGNTCKTQKTSWLQDCVLSLSPTNDLMVIAREQKAVFLVPKWKYSDKGKEEMQFAVGWSGSLNVEEGECVTSALCIPLASQKRSSTGRPDWTCIVVGFTSGYVRFYTENGVLLLAQLLNEDPVLQLKCRTYEIPRHPGVTEQNEELSILYPAAIVTIDGFSLFQSLRACRNQVAKAAASGNENIQPPPLAYKKWGLQDIDTIIDHASVGIMTLSPFDQMKTASNIGGFNAAIKNSPPAMSQYITVGSNPFTGFFYALEGSTQPLLSHVALAVASKLTSALFNAASGWLGWKSKHEEEAVQKQKPKVEPATPLAVRFGLPDSRRHGESICLSPCNTLAAVTDDFGRVILLDVARGIAIRMWKGYRDAQIGWIQTVEDLHERVPEKADFSPFGNSQGPSRVAQFLVIYAPRRGILEVWSTQQGPRVGAFNVGKHCRLLYPGYKIMGLNNVTSQSWQPQTYQICLVDPVSGSVKTVNVPFHLALSDKKSERAKDMHLVKKLAALLKTKSPNLDLVETEIKELILDIKYPATKKQALESILASERLPFSCLRNITQTLMDTLKSQELESVDEGLLQFCANKLKLLQLYESVSQLNSLDFHLDTPFSDNDLALLLRLDEKELLKLQALLEKYKQENTRTNVRFSDDKDGVLPVKTFLEYLEYEKDVLNIKKISEEEYVALGSFFFWKCLHGESSTEDMCHTLESAGLSPQLLLSLLLSVWLSKEKDILDKPQSICCLHTMLSLLSKMKVAIDETWDSQSVSPWWQQMRTACIQSENNGAALLSAHVGHSVAAQISNNMTEKKFSQTVLGADSEALTDSWEALSLDTEYWKLLLKQLEDCLILQTLLHSKGNTQTSKVSSLQAEPLPRLSVKKLLEGGKGGIADSVAKWIFKQDFSPEVLKLANEERDAENPDEPKEGVNRSFLEVSEMEMDLGAIPDLLHLAYEQFPCSLELDVLHAHCCWEYVVQWNKDPEEARFFVRSIEHLKQIFNAHVQNGIALMMWNTFLVKRFSAATYLMDKVGKSPKDRLCRRDVGMSDTAMTSFLGSCLDLLQILMEADVSRDEIQVPVLDTEDAWLSVEGPISIVELALEQKHIHYPLVEHHSILCSILYAVMRFSLKTVKPLSLFDSKGKNAFFKDLTSIQLLPSGEMDPNFISVRQQFLLKVVSAAVQAQHSATKVKDPTEEATPTPFGKDQDWPALAVDLAHHLQVSEDVVRRHYVGELYNYGVDHLGEEAILQVHDKEVLASQLLVLTGQRLAHALLHTQTKEGMELLARLPPTLCTWLKAMDPQDLQNTEVPIATTAKLVNKVIELLPEKHGQYGLALHLIEAVEAISLPSL
B3: TRIM13 (protein, UniProt O60858 1-407)
chain: MELLEEDLTCPICCSLFDDPRVLPCSHNFCKKCLEGILEGSVRNSLWRPAPFKCPTCRKETSATGINSLQVNYSLKGIVEKYNKIKISPKMPVCKGHLGQPLNIFCLTDMQLICGICATRGEHTKHVFCSIEDAYAQERDAFESLFQSFETWRRGDALSRLDTLETSKRKSLQLLTKDSDKVKEFFEKLQHTLDQKKNEILSDFETMKLAVMQAYDPEINKLNTILQEQRMAFNIAEAFKDVSEPIVFLQQMQEFREKIKVIKETPLPPSNLPASPLMKNFDTSQWEDIKLVDVDKLSLPQDTGTFISKIPWSFYKLFLLILLLGLVIVFGPTMFLEWSLFDDLATWKGCLSNFSSYLTKTADFIEQSVFYWEQVTDGFFIFNERFKNFTLVVLNNVAEFVCKYKLL
B4: PBXIP1 (protein, UniProt Q96AQ6 1-731)
chain: MASCPDSDNSWVLAGSESLPVETLGPASRMDPESERALQAPHSPSKTDGKELAGTMDGEGTLFQTESPQSGSILTEETEVKGTLEGDVCGVEPPGPGDTVVQGDLQETTVVTGLGPDTQDLEGQSPPQSLPSTPKAAWIREEGRCSSSDDDTDVDMEGLRRRRGREAGPPQPMVPLAVENQAGGEGAGGELGISLNMCLLGALVLLGLGVLLFSGGLSESETGPMEEVERQVLPDPEVLEAVGDRQDGLREQLQAPVPPDSVPSLQNMGLLLDKLAKENQDIRLLQAQLQAQKEELQSLMHQPKGLEEENAQLRGALQQGEAFQRALESELQQLRARLQGLEADCVRGPDGVCLSGGRGPQGDKAIREQGPREQEPELSFLKQKEQLEAEAQALRQELERQRRLLGSVQQDLERSLQDASRGDPAHAGLAELGHRLAQKLQGLENWGQDPGVSANASKAWHQKSHFQNSREWSGKEKWWDGQRDRKAEHWKHKKEESGRERKKNWGGQEDREPAGRWKEGRPRVEESGSKKEGKRQGPKEPPRKSGSFHSSGEKQKQPRWREGTKDSHDPLPSWAELLRPKYRAPQGCSGVDECARQEGLTFFGTELAPVRQQELASLLRTYLARLPWAGQLTKELPLSPAFFGEDGIFRHDRLRFRDFVDALEDSLEEVAVQQTGDDDEVDDFEDFIFSHFFGDKALKKRSGKKDKHSQSPRAAGPREGHSHSHHHHHRG
B5: SSR3 (protein, UniProt Q9UNL2 1-185)
chain: MAPKGSSKQQSEEDLLLQDFSRNLSAKSSALFFGNAFIVSAIPIWLYWRIWHMDLIQSAVLYSVMTLVSTYLVAFAYKNVKFVLKHKVAQKREDAVSKEVTRKLSEADNRKMSRKEKDERILWKKNEVADYEATTFSIFYNNTLFLVVVIVASFFILKNFNPTVNYILSISASSGLIALLSTGSK
B6: SCFD2 (protein, UniProt Q8WU76 1-684)
chain: MSASGVLSFTQQGWEQVLAKVKRAVVYLDAACAESLHWGCGSTRLLEAVGGPDCHLREFEPDAIGGGAKQPKAVFVLSCLLKGRTVEILRDIICRSHFQYCVVVTTVSHAVHLTANHVPAAAAAEMEGQQPVFEQLEEKLCEWMGNMNYTAEVFHVPLLLAPVAPHFALTPAFASLFPLLPQDVHLLNSARPDKRKLGSLGDVDSTTLTPELLLQIRCLVSGLSSLCEHLGVREECFAVGSLSQVIAADLANYAPAKNRKKTAAGRASVVFVDRTLDLTGAVGHHGDNLVEKIISALPQLPGHTNDVMVNMIALTALHTEEENYNVVAPGCLSQSSDTTAKALWEALLNTKHKEAVMEVRRHLVEAASRENLPIKMSMGRVTPGQLMSYIQLFKNNLKALMNHCGLLQLGLATAQTLKHPQTAKWDNFLAFERLLLQSIGESAMSVVLNQLLPMIKPVTQRTNEDYSPEELLILLIYIYSVTGELTVDKDLCEAEEKVKKALAQVFCEESGLSPLLQKITDWDSSINLTFHKSKIAVDELFTSLRDIAGARSLLKQFKSVYVPGNHTHQASYKPLLKQVVEEIFHPERPDSVDIEHMSSGLTDLLKTGFSMFMKVSRPHPSDYPLLILFVVGGVTVSEVKMVKDLVASLKPGTQVIVLSTRLLKPLNIPELLFATDRLHPDLGF
B7: SEC22A (endogenous) (protein, UniProt Q96IW7 1-307)
chain: MSMILSASVIRVRDGLPLSASTDYEQSTGMQECRKYFKMLSRKLAQLPDRCTLKTGHYNINFISSLGVSYMMLCTENYPNVLAFSFLDELQKEFITTYNMMKTNTAVRPYCFIEFDNFIQRTKQRYNNPRSLSTKINLSDMQTEIKLRPPYQISMCELGSANGVTSAFSVDCKGAGKISSAHQRLEPATLSGIVGFILSLLCGALNLIRGFHAIESLLQSDGDDFNYIIAFFLGTAACLYQCYLLVYYTGWRNVKSFLTFGLICLCNMYLYELRNLWQLFFHVTVGAFVTLQIWLRQAQGKAPDYDV

target: BirA*-RAB18 (UniProt Q9NP72); experiment: proximity labelling; independent BioID experiment with BirA*-RAB18 in WT HeLa cells; streptavidin-purified samples read by Western blotting

| Binder | binding |
| --- | --- |
| B1 | binds |
| B2 | binds |

target: BirA*-RAB18 (UniProt Q9NP72); experiment: proximity labelling; independent BioID experiment with BirA*-RAB18 in RAB3GAP1-null HeLa cells; streptavidin-purified samples read by Western blotting

| Binder | binding |
| --- | --- |
| B2 | no binding (only in RAB3GAP1-null cells) |

target: BirA*-RAB18 (UniProt Q9NP72); experiment: proximity labelling; BioID: BirA*-RAB18 transiently expressed in WT HeLa cells (compared with RAB3GAP1-, RAB3GAP2- and TRAPPC9-null cells), 50 uM biotin 24 h; biotinylated proteins purified on streptavidin Dynabeads, label-free quantitative mass spectrometry; hits are proteins with RAB3GAP-null:WT intensity ratio <=0.5

| Binder | binding |
| --- | --- |
| B1 | binds |
| B2 | binds |
| B3 | binds |
| B4 | binds |
| B5 | binds |
| B6 | binds |
| B7 | binds |
